Article PMC6868236

Protein sequences, listed by entry. Tags and fused reporters are not part of them.
UniProt Q10064: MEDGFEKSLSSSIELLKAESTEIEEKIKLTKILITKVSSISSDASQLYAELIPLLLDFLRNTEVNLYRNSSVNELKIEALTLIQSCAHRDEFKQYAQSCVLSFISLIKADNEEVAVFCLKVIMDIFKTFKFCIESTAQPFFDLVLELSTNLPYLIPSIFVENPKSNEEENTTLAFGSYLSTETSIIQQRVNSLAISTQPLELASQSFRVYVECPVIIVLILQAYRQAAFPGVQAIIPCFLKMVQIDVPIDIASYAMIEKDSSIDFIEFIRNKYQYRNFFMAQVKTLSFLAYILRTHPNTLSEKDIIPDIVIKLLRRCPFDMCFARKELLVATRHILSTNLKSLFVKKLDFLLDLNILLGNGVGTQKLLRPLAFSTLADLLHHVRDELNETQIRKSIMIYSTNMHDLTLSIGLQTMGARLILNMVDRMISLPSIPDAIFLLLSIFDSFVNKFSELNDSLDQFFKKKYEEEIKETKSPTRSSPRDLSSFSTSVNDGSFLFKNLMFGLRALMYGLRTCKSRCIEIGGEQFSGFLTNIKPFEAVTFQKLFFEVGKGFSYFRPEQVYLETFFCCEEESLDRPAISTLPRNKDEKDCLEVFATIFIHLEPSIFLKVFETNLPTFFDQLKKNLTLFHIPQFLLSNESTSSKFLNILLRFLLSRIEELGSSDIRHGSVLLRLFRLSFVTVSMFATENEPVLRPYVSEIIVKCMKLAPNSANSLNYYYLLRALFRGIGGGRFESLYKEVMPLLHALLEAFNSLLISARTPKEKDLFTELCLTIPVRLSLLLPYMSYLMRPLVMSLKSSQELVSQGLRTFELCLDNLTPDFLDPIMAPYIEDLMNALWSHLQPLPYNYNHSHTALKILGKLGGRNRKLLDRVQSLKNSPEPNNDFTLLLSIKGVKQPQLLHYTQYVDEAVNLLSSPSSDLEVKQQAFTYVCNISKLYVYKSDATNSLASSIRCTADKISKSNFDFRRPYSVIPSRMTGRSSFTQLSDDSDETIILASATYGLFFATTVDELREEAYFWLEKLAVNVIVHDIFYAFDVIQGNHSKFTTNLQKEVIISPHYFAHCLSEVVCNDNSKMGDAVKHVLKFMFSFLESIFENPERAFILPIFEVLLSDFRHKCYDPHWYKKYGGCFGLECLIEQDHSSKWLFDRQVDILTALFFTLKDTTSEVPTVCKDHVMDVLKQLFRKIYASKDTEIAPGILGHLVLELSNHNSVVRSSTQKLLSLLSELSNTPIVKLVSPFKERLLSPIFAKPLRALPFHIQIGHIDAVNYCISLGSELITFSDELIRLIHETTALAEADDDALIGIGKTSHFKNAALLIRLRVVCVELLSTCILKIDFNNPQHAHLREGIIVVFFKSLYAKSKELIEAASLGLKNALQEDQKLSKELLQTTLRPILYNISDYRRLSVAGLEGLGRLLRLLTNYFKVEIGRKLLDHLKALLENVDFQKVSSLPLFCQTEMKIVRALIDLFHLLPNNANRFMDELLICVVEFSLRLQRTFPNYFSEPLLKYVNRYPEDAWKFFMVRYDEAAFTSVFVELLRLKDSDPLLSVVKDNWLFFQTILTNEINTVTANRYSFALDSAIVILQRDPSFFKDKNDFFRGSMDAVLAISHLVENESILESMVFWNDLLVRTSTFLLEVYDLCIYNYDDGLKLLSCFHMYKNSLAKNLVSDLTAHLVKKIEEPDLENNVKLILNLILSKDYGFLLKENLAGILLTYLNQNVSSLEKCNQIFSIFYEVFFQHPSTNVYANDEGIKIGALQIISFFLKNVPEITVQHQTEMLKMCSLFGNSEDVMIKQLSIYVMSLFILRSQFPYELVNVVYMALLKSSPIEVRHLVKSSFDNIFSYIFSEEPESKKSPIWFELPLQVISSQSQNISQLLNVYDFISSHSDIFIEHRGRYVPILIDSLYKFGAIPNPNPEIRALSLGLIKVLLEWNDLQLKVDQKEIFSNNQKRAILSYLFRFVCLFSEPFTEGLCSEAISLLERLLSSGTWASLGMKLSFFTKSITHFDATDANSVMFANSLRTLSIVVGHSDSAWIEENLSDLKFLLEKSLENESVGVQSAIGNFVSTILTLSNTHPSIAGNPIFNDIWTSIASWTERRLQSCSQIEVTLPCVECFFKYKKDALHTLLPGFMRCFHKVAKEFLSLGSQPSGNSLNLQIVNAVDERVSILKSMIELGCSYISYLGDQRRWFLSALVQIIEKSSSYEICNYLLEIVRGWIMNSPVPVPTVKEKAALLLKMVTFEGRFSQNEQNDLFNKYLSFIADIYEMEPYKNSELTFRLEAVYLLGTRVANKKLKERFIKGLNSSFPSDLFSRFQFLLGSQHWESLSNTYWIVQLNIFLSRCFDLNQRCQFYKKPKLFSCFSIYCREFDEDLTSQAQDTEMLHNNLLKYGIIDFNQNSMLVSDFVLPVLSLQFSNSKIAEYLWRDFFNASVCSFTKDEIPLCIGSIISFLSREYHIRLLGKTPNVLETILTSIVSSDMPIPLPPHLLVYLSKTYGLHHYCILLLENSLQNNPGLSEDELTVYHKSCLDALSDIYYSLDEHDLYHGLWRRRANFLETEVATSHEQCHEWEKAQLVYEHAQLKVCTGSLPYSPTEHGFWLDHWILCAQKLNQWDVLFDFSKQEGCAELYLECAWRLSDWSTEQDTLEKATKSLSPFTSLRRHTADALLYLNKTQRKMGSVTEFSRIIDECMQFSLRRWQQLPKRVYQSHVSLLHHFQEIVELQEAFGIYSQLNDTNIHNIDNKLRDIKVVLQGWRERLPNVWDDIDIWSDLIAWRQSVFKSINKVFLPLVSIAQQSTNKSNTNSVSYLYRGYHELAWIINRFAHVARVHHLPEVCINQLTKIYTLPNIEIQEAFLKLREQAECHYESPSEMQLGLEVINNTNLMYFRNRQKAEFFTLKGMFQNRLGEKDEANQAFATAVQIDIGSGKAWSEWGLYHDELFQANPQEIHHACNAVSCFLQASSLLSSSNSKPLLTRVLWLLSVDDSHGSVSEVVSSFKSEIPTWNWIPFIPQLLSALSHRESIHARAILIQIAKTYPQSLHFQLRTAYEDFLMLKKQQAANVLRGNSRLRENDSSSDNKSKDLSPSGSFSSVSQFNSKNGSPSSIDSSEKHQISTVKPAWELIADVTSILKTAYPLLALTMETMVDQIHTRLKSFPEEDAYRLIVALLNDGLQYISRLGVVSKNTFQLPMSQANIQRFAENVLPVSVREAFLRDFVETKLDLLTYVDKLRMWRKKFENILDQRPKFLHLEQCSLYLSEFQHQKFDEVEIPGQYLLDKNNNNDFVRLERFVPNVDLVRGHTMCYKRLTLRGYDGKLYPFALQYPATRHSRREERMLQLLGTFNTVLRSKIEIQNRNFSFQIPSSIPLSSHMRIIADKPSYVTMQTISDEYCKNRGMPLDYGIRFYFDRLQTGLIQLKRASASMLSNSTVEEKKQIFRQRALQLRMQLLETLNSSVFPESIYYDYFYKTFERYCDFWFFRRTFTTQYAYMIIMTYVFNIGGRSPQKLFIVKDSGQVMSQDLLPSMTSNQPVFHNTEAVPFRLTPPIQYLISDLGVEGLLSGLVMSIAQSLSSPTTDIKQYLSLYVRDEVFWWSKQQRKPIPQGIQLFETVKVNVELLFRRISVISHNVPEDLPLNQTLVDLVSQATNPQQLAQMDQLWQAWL

How the values were obtained:
[1] = biological target: T1, Tti2-TAP (S. pombe) (S. pombe) (UniProt O94729); experiment: affinity purification with mass spectrometry; tandem affinity purification of Tti2 from S. pombe extracts, LC-MS/MS with label-free quantification, TAP against no-TAP samples
T1 sequence: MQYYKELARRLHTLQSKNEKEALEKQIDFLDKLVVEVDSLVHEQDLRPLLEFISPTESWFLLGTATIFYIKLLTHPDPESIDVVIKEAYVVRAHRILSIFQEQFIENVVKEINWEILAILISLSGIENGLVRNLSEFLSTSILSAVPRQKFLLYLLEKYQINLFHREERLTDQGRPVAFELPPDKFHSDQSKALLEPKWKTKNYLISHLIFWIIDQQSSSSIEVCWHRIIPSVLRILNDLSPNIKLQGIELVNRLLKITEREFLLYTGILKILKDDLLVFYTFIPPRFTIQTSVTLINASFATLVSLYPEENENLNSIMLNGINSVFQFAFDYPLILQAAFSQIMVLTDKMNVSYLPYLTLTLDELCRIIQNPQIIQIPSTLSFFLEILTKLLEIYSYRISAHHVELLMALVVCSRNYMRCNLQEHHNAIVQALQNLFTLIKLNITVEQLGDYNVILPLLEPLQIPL

[2] = biological target: T2, Mst1-TAP (S. pombe) (S. pombe) (UniProt O94446); experiment: affinity purification with mass spectrometry; tandem affinity purification of NuA4 by Mst1-TAP, Epl1-TAP or Vid21-TAP from S. pombe extracts, silver staining and LFQ LC-MS/MS; also tti2-CKO and tra2-CKO strains with DMSO or β-estradiol
T2 sequence: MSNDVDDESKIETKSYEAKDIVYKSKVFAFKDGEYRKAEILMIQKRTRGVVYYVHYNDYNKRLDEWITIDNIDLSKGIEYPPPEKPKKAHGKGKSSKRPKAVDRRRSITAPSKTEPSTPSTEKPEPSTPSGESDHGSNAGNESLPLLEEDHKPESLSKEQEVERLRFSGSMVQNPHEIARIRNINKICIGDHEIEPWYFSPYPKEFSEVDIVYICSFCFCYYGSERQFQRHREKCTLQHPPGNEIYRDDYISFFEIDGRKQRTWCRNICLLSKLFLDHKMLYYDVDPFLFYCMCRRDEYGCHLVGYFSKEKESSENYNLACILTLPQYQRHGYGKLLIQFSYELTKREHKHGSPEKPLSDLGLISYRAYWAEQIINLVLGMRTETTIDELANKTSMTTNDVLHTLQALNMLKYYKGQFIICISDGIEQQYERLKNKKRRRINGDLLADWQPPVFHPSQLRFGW

[3] = biological target: T3, Spt7-TAP (S. pombe) (S. pombe) (UniProt P87152); experiment: affinity purification with mass spectrometry; tandem affinity purification of SAGA by Spt7-TAP from S. pombe extracts (WEB or CLB buffer), EGTA eluates, silver staining and LFQ LC-MS/MS (prey to bait ratio); wild-type, tra1 hybrid and spt20 mutant strains; also tti2-CKO with DMSO or β-estradiol, RI-tra1, tel2-AID and hsp90 mutant strains
T3 sequence: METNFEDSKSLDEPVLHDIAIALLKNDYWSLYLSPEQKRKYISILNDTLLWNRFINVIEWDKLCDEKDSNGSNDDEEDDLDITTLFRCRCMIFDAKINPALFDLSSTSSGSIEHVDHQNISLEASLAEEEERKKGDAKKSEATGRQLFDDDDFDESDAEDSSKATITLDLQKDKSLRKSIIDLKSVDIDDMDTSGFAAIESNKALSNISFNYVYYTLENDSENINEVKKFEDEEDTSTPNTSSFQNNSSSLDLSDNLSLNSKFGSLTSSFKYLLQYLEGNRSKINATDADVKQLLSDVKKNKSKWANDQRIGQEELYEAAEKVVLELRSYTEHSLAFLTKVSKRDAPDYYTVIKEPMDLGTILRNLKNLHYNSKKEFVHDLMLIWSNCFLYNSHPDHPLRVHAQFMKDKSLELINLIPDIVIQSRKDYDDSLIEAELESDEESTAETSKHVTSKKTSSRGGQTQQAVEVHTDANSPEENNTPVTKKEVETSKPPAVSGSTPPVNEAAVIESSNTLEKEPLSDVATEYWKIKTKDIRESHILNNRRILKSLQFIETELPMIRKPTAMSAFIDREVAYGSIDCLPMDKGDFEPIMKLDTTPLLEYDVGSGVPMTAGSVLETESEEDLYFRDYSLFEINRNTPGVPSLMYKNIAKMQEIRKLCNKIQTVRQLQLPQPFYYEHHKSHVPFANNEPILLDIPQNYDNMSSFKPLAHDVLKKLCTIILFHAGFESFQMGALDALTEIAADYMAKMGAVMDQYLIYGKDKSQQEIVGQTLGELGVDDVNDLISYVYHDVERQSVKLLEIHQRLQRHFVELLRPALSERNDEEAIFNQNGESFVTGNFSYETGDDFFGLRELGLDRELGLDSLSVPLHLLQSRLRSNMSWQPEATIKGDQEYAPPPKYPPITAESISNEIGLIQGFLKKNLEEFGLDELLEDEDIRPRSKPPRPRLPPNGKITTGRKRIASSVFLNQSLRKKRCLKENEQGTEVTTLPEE

Molecule: FLAG-Tra1 (S. pombe, wild type) (from UniProt Q9HFE8 1-3661)
- binding [1]: binds

B2: Spt20 lacking its N-terminal half (residues 1-255 deleted) (domain or fragment, UniProt O14174 256-473)
chain: AQLADEEAERLEKENLLLLMDDQRKRDFQPTFQRLQFIENVRRKRAILQQRQMQMQQQQKAQQQQSPKAQQPPAHLVQSAPVQRKTTPKIQRLPPSSIQIPPPKPMQKFPANAASSESPPNATGNFLPSGPVPANEPMLKRESVDLIKIRQLAILFQQRASQLKARGATREQITEILNRQAIAAGTDLATVMTVARNLHFQQLQMRQQQQQQQMKAER
- binding [3]: no binding

B3: Spt20 (S. pombe) (protein, UniProt O14174 1-473)
chain: MERNNGLGDYTYRYHGKELSLDDFQNKQGIESSDDAFLSKIYENVSNFNVPRKLHDIEHKFSKEEPSLILHIHKFHFRFEQQDGAFTYNGPVKSILQYIRMELIPPDCLEVFRNSDVKFYDGCLTVRIIDHRQSPSADQTVQPQPGSTNQQQQNNTNPINNQPEDTKPNTNSPPVYHTVLRPTPETLWQDLCLLSESFANSLSDEAVLTLESNILLASEAPLFLTPAKSKAEMIQFMNQLADSAPPCTRKKPQGSAQLADEEAERLEKENLLLLMDDQRKRDFQPTFQRLQFIENVRRKRAILQQRQMQMQQQQKAQQQQSPKAQQPPAHLVQSAPVQRKTTPKIQRLPPSSIQIPPPKPMQKFPANAASSESPPNATGNFLPSGPVPANEPMLKRESVDLIKIRQLAILFQQRASQLKARGATREQITEILNRQAIAAGTDLATVMTVARNLHFQQLQMRQQQQQQQMKAER
- binding [3]: binds

B4: Sgf73 (S. pombe) (protein, UniProt O94397 1-344)
chain: MLTEQQTLELFPENWERNEQVLLKYPDGLPKDVLADQRVDNTESQVKDEITSNITNQTQILLPADSFPQYGSYPNNSELDYVVCTKCDRPFLSEYIEDHHSSCNGIKPPKPQFEPVANSQVLNKDVNNGNNAPIKNGVKSTAKGSAGNHEKNSVNGQKNPEMPPKRRKTEENKKPTKSALPKKEASKKKNPKVKGPVDVEKQCGVLLPNGQMCARSLTCKTHSMSSKRAVPGRSQPYDVLLAACQKKNQVKIQRQILETAKESEDNQHQAPVDSDEEVSFIMNVLQKSGNQPLEQKVFLPVKRRHSYFRTRELIAAAFRHGEQGMQVTGTILGRVIPFSARQPL
- binding [3]: binds

B7: Spt20-290 (S. pombe Spt20 truncation, residues 291-474 deleted) (domain or fragment, UniProt O14174 1-290)
chain: MERNNGLGDYTYRYHGKELSLDDFQNKQGIESSDDAFLSKIYENVSNFNVPRKLHDIEHKFSKEEPSLILHIHKFHFRFEQQDGAFTYNGPVKSILQYIRMELIPPDCLEVFRNSDVKFYDGCLTVRIIDHRQSPSADQTVQPQPGSTNQQQQNNTNPINNQPEDTKPNTNSPPVYHTVLRPTPETLWQDLCLLSESFANSLSDEAVLTLESNILLASEAPLFLTPAKSKAEMIQFMNQLADSAPPCTRKKPQGSAQLADEEAERLEKENLLLLMDDQRKRDFQPTFQRL
- binding [3]: binds

The next lines start with the values.

- binding [1]: binds
- binding [2]: binds
Molecule: Tra2 (S. pombe) (from UniProt Q10064 1-3655)

- binding [3]: binds
Molecule: Spt20-RRKR (S. pombe Spt20 with the four RRKR residues of the HIT region mutated) (from UniProt O14174)

- binding [3]: binds
Molecule: Spt20-FIEN (S. pombe Spt20 with the four FIEN residues of the HIT region mutated) (from UniProt O14174)

- binding [3]: binds
B1: Taf12 (S. pombe) (protein, UniProt O13722 1-450)
chain: MNGQHSSPGTPVQRPSAGPVNQAQFSQQRTNQLTSLLHTMTMYQQLAQNVGLNTPQGQVYLLQAQTIRRQLQGHAQSGQLPNQQLLQQLQSNGALQQGTPEPSNTRPRPQLNAQEQTMLLVRHRQLQTAQNYLTEMKEALGRIKNELSTNERLDTSAREALVKQESELTVKIAQFTAAISNGIRSIQQLQNRQASSANGNNTGTSTPVNASTDTRKSTASTPQLQQTQAQANAPQQRINPETSSVPETPVGVSAANVSNESTELATSATQQSGLANNVEKSQTPSYMSANHLPKVDSKSPIPFSVPPSRATLTGGYASGSIGLSTPGLSRAPHYELDNGNRLLSKRKLHDLLQQIDSEEKIEPEVEELLLEIADEFVESVTNFACRLAKHRKSDTLDVRDVQLHLERNWNIRLPGFASDDIVKSARKTGPTPSYQQKQNAIGTAKSLNKD

- binding [3]: binds
B5: Spt20-HITΔ (S. pombe Spt20 with the HIT region deleted) (protein, UniProt O14174)
chain: MERNNGLGDYTYRYHGKELSLDDFQNKQGIESSDDAFLSKIYENVSNFNVPRKLHDIEHKFSKEEPSLILHIHKFHFRFEQQDGAFTYNGPVKSILQYIRMELIPPDCLEVFRNSDVKFYDGCLTVRIIDHRQSPSADQTVQPQPGSTNQQQQNNTNPINNQPEDTKPNTNSPPVYHTVLRPTPETLWQDLCLLSESFANSLSDEAVLTLESNILLASEAPLFLTPAKSKAEMIQFMNQLADSAPPCTRKKPQGSAQLADEEAERLEKENLLLLMDDQRKRDFQPTFQRAILQQRQMQMQQQQKAQQQQSPKAQQPPAHLVQSAPVQRKTTPKIQRLPPSSIQIPPPKPMQKFPANAASSESPPNATGNFLPSGPVPANEPMLKRESVDLIKIRQLAILFQQRASQLKARGATREQITEILNRQAIAAGTDLATVMTVARNLHFQQLQMRQQQQQQQMKAER

- binding [3]: binds
B6: Spt20-300 (S. pombe Spt20 truncation, residues 301-474 deleted) (domain or fragment, UniProt O14174 1-300)
chain: MERNNGLGDYTYRYHGKELSLDDFQNKQGIESSDDAFLSKIYENVSNFNVPRKLHDIEHKFSKEEPSLILHIHKFHFRFEQQDGAFTYNGPVKSILQYIRMELIPPDCLEVFRNSDVKFYDGCLTVRIIDHRQSPSADQTVQPQPGSTNQQQQNNTNPINNQPEDTKPNTNSPPVYHTVLRPTPETLWQDLCLLSESFANSLSDEAVLTLESNILLASEAPLFLTPAKSKAEMIQFMNQLADSAPPCTRKKPQGSAQLADEEAERLEKENLLLLMDDQRKRDFQPTFQRLQFIENVRRKR

No constants are given. Whether binding was seen depends on the method and setting. Binding seen in cells or lysates may run through a third protein. These calls come from enrichment with a bait or labelling near it, and not all partners need be listed. For part of these data: No binding means not detected with the bait. Each block holds one molecule with its values, some of them ahead of it.
